“And” between values parts separate entries of the source, which are not always exact repeats. Equal entries are not always repeated. About 100 (0.027%) of roughly 370,000 compounds were called active. The shares of active, inactive and inconclusive entries below differ from those in the screen. Calls follow the shape of the dose curve; as a rule, active = well fitted inhibition curve with a large enough effect in the polarisation, with a control signal flat; inconclusive = small, poorly fitted or top-dose-only effect, or effect the other way, or a change in a side signal; inactive = no such curve, though single readings can be large or run the other way; the % refers to the polarisation. A potency beside an inconclusive call is a rough fit, not a confirmed value. A note “side channel” means that the fit belongs to a control or component signal, not to the main read-out.
Target: Transcriptional regulator ERG (Homo sapiens) (UniProt P11308)
Assay: qHTS for Small Molecule Inhibitors of the ERG Ets/DNA interaction
Conditions: fluorescence polarization, His-ERG Ets domain / labelled DNA; series mostly up to 76.9 µM
How it was run: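 His-tagged ERG Ets domain (1 uM in the protein solution; 300mM KCl, 50mM Tris-HCl, 1mM EDTA, 1mM DTT, pH 7.5) received compound, then a probe mix of 5 nM fluorescein-DNA and 100nM Texas-615-DNA. Fluorescence polarization was read for both dyes.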
Potency is read from the fitted curve at half-maximal effect.

Chains of the proteins cited; added tags and fusions are not shown. Lines headed by an entry give the natural chain unless they say otherwise; changes in a name come on top.
UniProt P11308: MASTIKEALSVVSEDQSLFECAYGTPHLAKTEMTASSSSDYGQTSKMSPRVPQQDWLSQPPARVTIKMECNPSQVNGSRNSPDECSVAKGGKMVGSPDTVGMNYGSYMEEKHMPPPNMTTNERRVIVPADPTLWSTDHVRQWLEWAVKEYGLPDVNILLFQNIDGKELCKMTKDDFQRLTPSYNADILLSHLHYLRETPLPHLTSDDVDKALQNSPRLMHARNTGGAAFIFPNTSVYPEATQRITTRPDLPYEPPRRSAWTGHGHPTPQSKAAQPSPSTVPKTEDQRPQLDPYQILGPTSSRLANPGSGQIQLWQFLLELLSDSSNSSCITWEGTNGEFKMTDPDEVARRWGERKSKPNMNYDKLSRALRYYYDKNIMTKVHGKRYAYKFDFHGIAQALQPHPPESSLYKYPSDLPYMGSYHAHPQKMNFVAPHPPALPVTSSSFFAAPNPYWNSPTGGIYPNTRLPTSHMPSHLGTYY

Row | Compound | Potency
1 | CCN(CC)S(=O)(=O)c1ccc(C(=O)NCc2ccc3c(c2)cc(C)n3C)cc1 | active: 31.6 µM
2 | Cc1cc(C)nc(SCCN(C)C)n1 | inactive
3 | COC1(OC)C(/C=C/c2ccc(C)cc2)C(C#N)(C#N)C1(OC)OC (configuration not stated) | inconclusive: 28.2 µM [fluorescent, side channel, partial curve, poor fit]
4 | COc1cc(/C=C2/SC(=O)NC2=O)ccc1OC(=O)c1ccco1 | inconclusive: 11.2 µM [inhibitor, partial curve, poor fit]
5 | COc1ccc2c(c1)C(C)=CC(C)(C)N2S(=O)(=O)c1ccc(Br)cc1 | inconclusive: 44.7 µM [inhibitor, single point]
6 | O=C(CC1OC(=O)c2ccccc21)NNC(=O)c1ccc(F)cc1 (configuration not stated) | inactive
7 | COC(=O)/C=C/c1cnc[nH]1 | inactive
8 | O=C(Nc1ccc(Cl)cc1)N1CCOCC1 | inactive
9 | CC(C)Cn1c(Cc2ccccc2)n[nH]c1=S | inactive
10 | CCOc1ccc(C(C)=O)cc1COC(=O)c1ccc2c(c1)NC(=O)CS2 | inactive
11 | CC(C)CN=CC1=C(O)c2ccccc2C1=O | inconclusive: 39.8 µM [inhibitor, single point]
12 | CCN(CCNC(=O)CCCn1nc(C)n2c(cc3sccc32)c1=O)c1ccccc1 | inactive
13 | CSc1cccc(NC(=S)N(CCCN2CCCC2)Cc2cccn2Cc2ccc(Cl)cc2)c1 | inconclusive: 1 µM [inhibitor, full curve, poor fit]
14 | CCn1nc(C)c(CNC(=O)c2cc(COc3ccccc3SC)on2)c1C | inconclusive: 22.4 µM [inhibitor, partial curve, poor fit]
15 | O=C(NCc1ccccc1Cl)c1cccc2c1C(=O)c1ccc(-c3ccc(OC(F)(F)F)cc3)cc1S2(=O)=O | inactive
16 | COC(=O)c1ccccc1Oc1ccc(NC(=O)c2ccco2)cc1 | inactive
17 | CCC(Sc1nccn1C)C(=O)Nc1ccc(Cl)cn1 (configuration not stated) | inconclusive: 11.2 µM [inhibitor, partial curve, poor fit]
18 | COc1cc(C(=O)Nc2ccc(C(=O)NCC3CCCO3)cc2)cc(OC)c1OC (configuration not stated) | inactive
19 | CCOc1cc(/C=C/c2ccc3cccc([N+](=O)[O-])c3n2)ccc1O | inconclusive: 31.6 µM [quencher, side channel, partial curve, poor fit]
20 | CC(C)OC(=O)/C(C#N)=C/c1ccc(-c2ccc(SC(F)F)cc2)o1 | inconclusive: 31.6 µM [inhibitor, single point]
21 | O=C(O)C1CCCC2CN3CCc4c([nH]c5ccccc45)C3C(O)C21 (configuration not stated) | inconclusive: 25.1 µM [inhibitor, partial curve, poor fit]

Row | Compound | Potency
22 | COC(OC)c1nc(SCC(=O)Nc2cccc(Cl)c2)ncc1C(=O)O | inconclusive: 35.5 µM [inhibitor, partial curve, poor fit]
23 | Cc1ccc2c(c1)C(=O)OC(C(=O)Nc1ccc(C(=O)O)cc1)C2 (configuration not stated) | inconclusive: 31.6 µM [fluorescent, side channel, single point]
24 | Oc1ccc(NCc2ccccc2OCc2ccc(Cl)cc2)cc1 | inconclusive: 100 µM [inhibitor, single point]
25 | COc1ccc(NC(=O)CSCC(=O)N(C)Cc2cccc(OC)c2OC)cc1 | inconclusive: 0.794 µM [inhibitor, partial curve, poor fit]
26 | CC1C2(C)OC(=N)C(C#N)(C(C)O2)C1(C#N)C#N (configuration not stated) | inconclusive: 35.5 µM [inhibitor, partial curve, poor fit]
27 | Cc1ccc(N2CCN(C(=O)c3cn(C)c4ccc(S(=O)(=O)N(C)C)cc4c3=O)CC2C)cc1 (configuration not stated) | inconclusive: 50.1 µM [quencher, side channel, single point]
28 | CC(C)CNC(=S)Nc1ccc(Oc2ccccc2)cc1 | inconclusive: 7.08 µM [quencher, side channel, partial curve, poor fit]
29 | Cc1cccc(Cn2c(C)nc3ccc([N+](=O)[O-])cc3c2=O)c1 | inactive
30 | Cc1cc(/C=N/NC(=O)C(O)(c2ccccc2)c2ccccc2)c(C)n1-c1cccc(C(=O)O)c1 | inactive
31 | CCOC(=O)C1(CCc2ccccc2)CCN(C(=O)[C@@H]2C[C@@H](C)NC(=S)N2)CC1 | inconclusive: 35.5 µM [inhibitor, single point]
32 | N#Cc1c(C(F)(F)F)cc(-c2cccs2)nc1SCC(=O)Nc1cccc(Cl)c1 | inconclusive: 11.2 µM [fluorescent, side channel, single point]
33 | CC(=O)c1cccc(NC(=O)CN(c2cc(C)cc(C)c2)S(=O)(=O)c2c(C)noc2C)c1 | inconclusive: 39.8 µM [quencher, side channel, single point]
34 | CC(C)[C@H](NS(=O)(=O)c1ccccc1F)C(=O)NC1CCCCC1 | inconclusive: 6.31 µM [inhibitor, partial curve, poor fit]
35 | O=C(CCSc1ccccc1)Nc1nc2c(s1)CCCC2 | inactive
36 | COc1cc(NC(=O)c2cc3nc(-c4ccccc4)cc(-c4ccccc4)n3n2)cc(OC)c1OC | inactive
37 | O=C(NCCc1ccccc1)c1ccc(Cn2c(SCc3ccccc3F)nc3cccnc32)cc1 | inconclusive: 7.94 µM [quencher, side channel, partial curve, poor fit]
38 | O=C(/C=C/c1ccc(F)cc1)OCC(=O)c1ccc[nH]1 | inconclusive: 50.1 µM [inhibitor, single point]
39 | CCOc1ccccc1CNc1ccc(O)cc1 | inconclusive: 25.1 µM [inhibitor, partial curve]
40 | S=C(NCc1ccccc1)Nc1cccc(Cl)c1 | inconclusive: 31.6 µM [inhibitor, single point]
41 | Cc1cc2cc(CNS(=O)(=O)c3ccc4ccccc4c3)ccc2n1C | inconclusive: 31.6 µM [inhibitor, single point]
42 | O=C(O)Cn1c(O)c(C=Nc2ccccc2)sc1=S | inconclusive: 31.6 µM [fluorescent, partial curve] and inconclusive: 35.5 µM [fluorescent, side channel, single point]

3 compounds from above, arranged by heavy-atom count, largest number first.
Row | Compound | Potency
38 | O=C(/C=C/c1ccc(F)cc1)OCC(=O)c1ccc[nH]1 | inconclusive: 50.1 µM [inhibitor, single point]
42 | O=C(O)Cn1c(O)c(C=Nc2ccccc2)sc1=S | inconclusive: 31.6 µM [fluorescent, partial curve] and inconclusive: 35.5 µM [fluorescent, side channel, single point]
39 | CCOc1ccccc1CNc1ccc(O)cc1 | inconclusive: 25.1 µM [inhibitor, partial curve]

— PubChem BioAssay AID624246 (National Center for Advancing Translational Sciences (NCATS), 2012)
